# The list does not hold the whole screen: it is rich in T/C values a quarter to a half above the control, in often repeated tests (any T/C) and in doses without a T/C. Further doses and runs are listed elsewhere. T/C gives the treated animals as a percentage of the vehicle group. Some entries give survivors of the animals treated and no T/C: the source files T/C as zero there, which appears to mark a toxic dose or a test without result, not a measured value. Some doses without a T/C left all or most animals alive at the check, yet need not have been tolerated: the source hardly ever lists a survival T/C far under the control, and the zero likely stands for such cases as well. Survivors were counted at the toxicity check, usually on the fifth day, unless a day is given; later deaths do not show. Schedules are NCI's codes, taken here to give the interval after Q, in days (D) or hours (H), and the number of doses after X. Some entries were tested several times; their values stand side by side, smallest first. Some molecules as drawn cover several salts, stereoisomers or complexes of the source; a dose is that of the sample tested. Where survival is the endpoint, this PubChem deposit counts one and a half times the control or more as active, and values a quarter to a half above the control carry no call in these data; other NCI protocols may use other cut-offs. Some T/C values are followed by the survivors on the day toxicity was checked, most often the fifth; where none is given, no animal had died by that day.
# Test system: CD2F1 mice, L1210 leukemia ip, survival T/C
# Test: NCI In Vivo Anticancer Drug Screen. Data for tumor model L1210 Leukemia (intraperitoneal) in CD2F1 (CDF1) mice
# Conditions: higher T/C = longer survival
# Summary of the method: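 Antitumor effect is scored in animals hosting a serially transplanted tumor. Values compare compound-dosed animals against vehicle-only controls as a simple quotient.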
# [1] = T/C endpoint: mean survival time, dose: 300.0 mg/kg/injection, schedule: Q01DX001 (ip), vehicle: other
# [2] = T/C endpoint: mean survival time, dose: 400.0 mg/kg/injection, schedule: Q01DX001 (ip), vehicle: saline
# [3] = T/C endpoint: mean survival time, dose: 50.0 mg/kg/injection, schedule: Q01DX009 (ip), vehicle: saline with Tween-80
# [4] = T/C endpoint: mean survival time, dose: 200.0 mg/kg/injection, schedule: Q01DX009 (ip), vehicle: saline with Tween-80
# [5] = T/C endpoint: mean survival time, dose: 400.0 mg/kg/injection, schedule: Q04DX003 (ip), vehicle: saline with Tween-80
# [6] = T/C endpoint: mean survival time, dose: 100.0 mg/kg/injection, schedule: Q01DX009 (ip), vehicle: saline with Tween-80
# [7] = T/C endpoint: mean survival time, dose: 400.0 mg/kg/injection, schedule: Q01DX001 (ip), vehicle: saline with Tween-80
# [8] = T/C endpoint: mean survival time, dose: 400.0 mg/kg/injection, schedule: Q01DX009 (ip), vehicle: saline with Tween-80
# [9] = T/C endpoint: mean survival time, dose: 25.0 mg/kg/injection, schedule: Q01DX009 (ip), vehicle: sodium bicarbonate
# [10] = T/C endpoint: mean survival time, dose: 50.0 mg/kg/injection, schedule: Q01DX009 (ip), vehicle: sodium bicarbonate
# [11] = T/C endpoint: mean survival time, dose: 32.0 mg/kg/injection, schedule: Q01DX009 (ip), vehicle: acid diluted with saline
# [12] = T/C endpoint: mean survival time, dose: 200.0 mg/kg/injection, schedule: Q04DX003 (ip), vehicle: saline with Tween-80
# [13] = T/C endpoint: mean survival time, dose: 300.0 mg/kg/injection, schedule: Q01DX001 (ip), vehicle: saline
# [14] = T/C endpoint: mean survival time, dose: 400.0 mg/kg/injection, schedule: Q04DX003 (ip), vehicle: saline
smiles,measurement,setting,value
O=C1C(N2CCCCC2)=C(N2CC2)C(=O)C(N2CCCCC2)=C1N1CC1,T/C,"T/C endpoint: mean survival time, dose: 2.5 mg/kg/injection, schedule: Q01DX009 (ip), vehicle: saline","98, 105 [5 of 6 alive], 106, 130 % of control"
same,T/C,"T/C endpoint: mean survival time, dose: 5.0 mg/kg/injection, schedule: Q01DX009 (ip), vehicle: saline","115, 117, 120, 122 % of control"
same,T/C,"T/C endpoint: mean survival time, dose: 10.0 mg/kg/injection, schedule: Q01DX009 (ip), vehicle: saline","107, 112, 128, 141 % of control"
same,survivor count,"T/C endpoint: mean survival time, dose: 20.0 mg/kg/injection, schedule: Q01DX009 (ip), vehicle: saline",3 of 6
CN1CCc2cc3c(cc2C1)OCO3,survivor count,"T/C endpoint: mean survival time, dose: 200.0 mg/kg/injection, schedule: Q01DX001 (ip), vehicle: saline",0 of 6
same,survivor count,[1],0 of 6
same,survivor count,[2],0 of 6
CCCCN1C(=O)C(=O)N(c2cc(C)c(C)cc2C)C1=O,survivor count,[3],3 of 3
same,survivor count,[4],3 of 3
CC(=O)Oc1ccc(N2C(=O)C=CC2=O)cc1,survivor count,"T/C endpoint: mean survival time, dose: 25.0 mg/kg/injection, schedule: Q04DX003 (ip), vehicle: Klucel (hydroxypropylcellulose) (HPC)",0 of 6
same,survivor count,"T/C endpoint: mean survival time, dose: 50.0 mg/kg/injection, schedule: Q04DX003 (ip), vehicle: Klucel (hydroxypropylcellulose) (HPC)",0 of 6
CCCCCCCCCCCCNCCC#N,survivor count,[5],0 of 6
COC1=CC(=O)C(OC)=C(OC)C1=O,survivor count,[6],0 of 6
O=C1OC(=O)C2C3C=CC(C4C=CC43)C12 (stereo unspecified),survivor count,[7],0 of 6
Cc1ccc2c(c1)C(C(F)(F)F)(C(F)(F)F)OC(C(F)(F)F)(C(F)(F)F)N2,survivor count,[8],0 of 6
CN(C)C(=O)CCC(NC(=O)c1ccc(N(C)Cc2cnc3nc(N)nc(N)c3n2)cc1)C(=O)O (stereo unspecified),T/C,[9],131 % of control
same,T/C,[10],144 % of control
CCNCCNc1ccc(NCCNCC)c2c1C(=O)c1ccccc1C2=O,T/C,"T/C endpoint: mean survival time, dose: 8.0 mg/kg/injection, schedule: Q01DX009 (ip), vehicle: acid diluted with saline, evaluated on day 30",128 % of control
same,T/C,"T/C endpoint: mean survival time, dose: 8.0 mg/kg/injection, schedule: Q01DX009 (ip), vehicle: acid diluted with saline, evaluated on day 35",132 % of control
same,T/C,"T/C endpoint: mean survival time, dose: 16.0 mg/kg/injection, schedule: Q01DX009 (ip), vehicle: acid diluted with saline, evaluated on day 30",130 % of control
same,T/C,"T/C endpoint: mean survival time, dose: 16.0 mg/kg/injection, schedule: Q01DX009 (ip), vehicle: acid diluted with saline, evaluated on day 35",132 % of control
same,T/C,[11],137 % of control
same,survivor count,[11],5 of 6
same,survivor count,"T/C endpoint: mean survival time, dose: 64.0 mg/kg/injection, schedule: Q01DX009 (ip), vehicle: acid diluted with saline",0 of 6
CSC(=S)N/N=C/c1ccccc1O,survivor count,[3],5 of 6
same,survivor count,"T/C endpoint: mean survival time, dose: 100.0 mg/kg/injection, schedule: Q04DX003 (ip), vehicle: saline with Tween-80",4 of 6
same,survivor count,[12],0 of 6
same,survivor count,[5],0 of 6
O=P(OCc1ccccc1)(N(CCCl)CCCl)N1CCOCC1 (stereo unspecified),survivor count,"T/C endpoint: mean survival time, dose: 500.0 mg/kg/injection, schedule: Q01DX010 (ip), vehicle: saline",0 of 6
CCCCCNC(=O)CCC(NC(=O)c1ccc(N(C)Cc2cnc3nc(N)nc(N)c3n2)cc1)C(=O)O (stereo unspecified),T/C,[9],125 % of control
same,T/C,"T/C endpoint: mean survival time, dose: 33.0 mg/kg/injection, schedule: Q01DX009 (ip), vehicle: sodium bicarbonate",128 % of control
same,T/C,[10],130 % of control
same,T/C,"T/C endpoint: mean survival time, dose: 75.0 mg/kg/injection, schedule: Q01DX009 (ip), vehicle: sodium bicarbonate",135 % of control
same,T/C,"T/C endpoint: mean survival time, dose: 112.0 mg/kg/injection, schedule: Q01DX009 (ip), vehicle: sodium bicarbonate",132 % of control
COc1ccc(NC(=O)Nc2cccc([N+](=O)[O-])c2OC)cc1,survivor count,"T/C endpoint: mean survival time, dose: 100.0 mg/kg/injection, schedule: Q04DX002 (ip), vehicle: saline with Tween-80",3 of 3
CCC(=O)NC1=C(Cl)C(=O)c2ccccc2C1=O,survivor count,"T/C endpoint: mean survival time, dose: 40.0 mg/kg/injection, schedule: Q01DX001 (ip), vehicle: saline",0 of 6
same,survivor count,"T/C endpoint: mean survival time, dose: 80.0 mg/kg/injection, schedule: Q01DX001 (ip), vehicle: saline",0 of 6
CC(C)c1cc2cc(Br)ccc2o1,survivor count,[2],5 of 6
Cc1ccc([N+](=O)[O-])cc1NC(=O)Nc1onc(C)c1C,survivor count,"T/C endpoint: mean survival time, dose: 50.0 mg/kg/injection, schedule: Q01DX009 (ip), vehicle: Klucel (hydroxypropylcellulose) (HPC)",3 of 3
S=c1nc(-c2ccncc2)[nH][nH]1,survivor count,[12],3 of 6
same,survivor count,[5],3 of 6
Nc1ncnc2[nH]ncc12,survivor count,"T/C endpoint: median survival time, dose: 24.0 mg/kg/injection, schedule: Q01DX009 (ip), vehicle: saline",5 of 6 and 6 of 6
Cc1cc(NCCN(C(C)C)C(C)C)nc(Nc2nc3ccc(Cl)cc3[nH]2)n1,survivor count,"T/C endpoint: mean survival time, dose: 3.13 mg/kg/injection, schedule: Q01DX009 (ip), vehicle: saline with Tween-80",6 of 6
O=C(O)C(=O)O.[NH-]CC(O)CN(CC(O)CO)c1ccccc1.[Pt+2] (stereo unspecified),survivor count,"T/C endpoint: median survival time, dose: 80.0 mg/kg/injection, schedule: Q04DX003 (ip), vehicle: distilled water + Tween-80",4 of 6
same,survivor count,"T/C endpoint: median survival time, dose: 160.0 mg/kg/injection, schedule: Q04DX003 (ip), vehicle: distilled water + Tween-80",0 of 6
same,survivor count,"T/C endpoint: median survival time, dose: 320.0 mg/kg/injection, schedule: Q04DX003 (ip), vehicle: distilled water + Tween-80",0 of 6
CCOS(=O)(=O)c1ccc(Cl)c([N+](=O)[O-])c1,survivor count,[6],3 of 6
same,survivor count,[4],1 of 6
same,survivor count,[12],4 of 6
same,survivor count,[5],3 of 6
CCOc1ccc(Cl)cc1,survivor count,[4],3 of 6
CCCCCCCCN(CCCCCCCC)CC(O)c1ccc2c(c1)Sc1ccccc1O2 (stereo unspecified),survivor count,[13],1 of 6
COc1cc(OC)c(C(=O)CCl)c(O)c1Cl,survivor count,[4],0 of 6
same,survivor count,[8],0 of 6
COC1=C(Br)[C@H](O)[C@](O)(CC#N)C=C1Br,survivor count,"T/C endpoint: mean survival time, dose: 140.0 mg/kg/injection, schedule: Q01DX009 (ip), vehicle: Klucel (hydroxypropylcellulose) (HPC)",4 of 6
CN1C(C(=O)O)CCC1C(=O)O (stereo unspecified),survivor count,[14],1 of 6
CC(=O)OC1COC(n2c(O)c(N=NC(N)=S)c3cc([N+](=O)[O-])ccc32)C(OC(C)=O)C1OC(C)=O (stereo unspecified),survivor count,"T/C endpoint: mean survival time, dose: 200.0 mg/kg/injection, schedule: Q01DX005 (ip), vehicle: other",1 of 3
CCOC(=O)c1cnc2c(cnn2CC)c1NN=C(C)C,survivor count,[14],1 of 6
CNC(=O)OCc1c(COC(=O)NC)c(-c2ccccc2)n(C)c1-c1ccccc1,T/C,"T/C endpoint: mean survival time, dose: 12.5 mg/kg/injection, schedule: Q01DX009 (ip), vehicle: distilled water + Tween-80",140 % of control
same,T/C,"T/C endpoint: mean survival time, dose: 25.0 mg/kg/injection, schedule: Q01DX009 (ip), vehicle: distilled water + Tween-80",147 % of control
same,survivor count,"T/C endpoint: mean survival time, dose: 100.0 mg/kg/injection, schedule: Q01DX009 (ip), vehicle: distilled water + Tween-80",3 of 6
Nc1nc(C=O)nc2c1ncn2C1OC(CO)C(O)C1O (stereo unspecified),survivor count,"T/C endpoint: median survival time, dose: 200.0 mg/kg/injection, schedule: Q01DX005 (ip), vehicle: water",3 of 6
FC(F)(F)/C([S-])=C(/[S-])C(F)(F)F.[Ni].[c-]1[c-][c-][cH-][c-]1,survivor count,"T/C endpoint: mean survival time, dose: 38.0 mg/kg/injection, schedule: Q01DX001 (ip), vehicle: other",3 of 6
same,survivor count,"T/C endpoint: mean survival time, dose: 75.0 mg/kg/injection, schedule: Q01DX001 (ip), vehicle: other",2 of 6
same,survivor count,"T/C endpoint: mean survival time, dose: 150.0 mg/kg/injection, schedule: Q01DX001 (ip), vehicle: other",0 of 6
same,survivor count,[1],0 of 6
CC/C=C/CC(=O)NCc1ccc(O)c(OC)c1,survivor count,[7],0 of 6
CCOC(=O)/N=C/N(C)C,survivor count,"T/C endpoint: median survival time, dose: 200.0 mg/kg/injection, schedule: Q04DX003 (ip), vehicle: saline with Tween-80",0 of 3
CC([NH-])C[NH-].[Na+].[O]=[Co][O-] (stereo unspecified),survivor count,"T/C endpoint: mean survival time, dose: 75.0 mg/kg/injection, schedule: Q01DX001 (ip), vehicle: saline",3 of 6
same,survivor count,"T/C endpoint: mean survival time, dose: 150.0 mg/kg/injection, schedule: Q01DX001 (ip), vehicle: saline",2 of 6
same,survivor count,[13],0 of 6
